Results on 60 compounds are retold here after PubChem BioAssay AID2685 (National Center for Advancing Translational Sciences (NCATS), 2010).

The other results are listed elsewhere or left out. These are further read-outs of the screen, such as a control signal, another cell line or another target. No call is given for them. The list favours compounds with an active or inconclusive main result. Potencies come from curve fits of mixed quality, noted in brackets.

The test in a line: qHTS Assay for Lipid Storage Modulators in Drosophila S3 Cells.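 On cell number change: cells counted by Cell Tracker Red CMTPX staining in the red channel.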 The settings on record: BODIPY lipid droplet fluorescence, 18-24 h; for cell number change: measured here: cell count max response, cells fed with added oleic acid. The essentials: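 Drosophila S3 cells got compounds at several concentrations plus oleic acid (400 uM solution). Laser-scanning cytometry with 488 nm excitation read lipid droplets at 500-530 nm and cells at 575-640 nm. Percent activity was relative to 20 uM Triacsin C.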

The mark [1] stands for this setting: measured here: cell number channel AC50, cells fed with added oleic acid.
Where [2] appears, read: measured here: lipid fluorescence (Fed channel) AC50, cells fed with added oleic acid.

Take `CCN(CC)C(=O)CCCSc1nnc(Nc2ccccc2F)s1`: the cell number change is -33.7%. Also, under setting [1], the AC50 is 32.6 µM [falling, single point]. Further, the concentration at half-maximal activity (AC50) under setting [2] was 7.31 µM [falling, partial curve, poor fit].

Turning to `COc1ccc(N(C(=O)c2snc(C(N)=O)c2N)C(C(=O)NCC2CCCO2)c2ccc3ncccc3c2)cc1OC` (stereo unspecified), the cell number change turned out to be 5.26%. Regarding `Cc1ccc(N(CC(=O)NCc2ccc(F)cc2)C(=O)c2csnn2)cc1C`, under setting [1], the concentration at half-maximal activity (AC50) is 6.51 µM [rising, single point].

Take `CCC(=O)Nc1ccc(NC(=O)CSc2nnnn2C(C)C)cc1`: the cell number change is 89.8%. Under setting [1], the AC50 is 13 µM [rising, partial curve]. For the same compound, the AC50 under setting [2] is 6.51 µM [rising, single point]. Regarding `CN(C)CCN(C(=O)c1ccc2ccccc2c1)c1nc2c(F)cccc2s1`, under setting [2], the AC50 was 29.1 µM [falling, single point]. For `COc1cccc(OC)c1C(=O)NC(=S)NNC(=O)[C@H]1C[C@@H]1c1ccccc1`, the cell number change was 8.57%. In addition, the AC50 under setting [1] was 0.58 µM [falling, partial curve]. Also, the AC50 under setting [2] is 0.58 µM [falling, partial curve]. Regarding `CCn1c(COc2c(C)cccc2C)nnc1SCc1nc2ccccc2c(=O)[nH]1`, the AC50 under setting [1] is 1.46 µM [rising, partial curve, poor fit] and the AC50 under setting [2] is 0.164 µM [rising, full curve, poor fit]. Consider `COC(=O)c1cn(NC(=O)Cn2nc([N+](=O)[O-])c(Cl)c2C)c(=O)c2ccccc12`, for which the cell number change was determined as 15.3%. As to `Cc1ccccc1Cn1c2ccccc2c2cnn(CC(=O)NCCCN3CCN(C)CC3)c(=O)c21`, the cell number change was -20.6%.

In the case of `COc1cc(OC)c(/C=N/NC(=O)c2ccc([N+](=O)[O-])cc2)cc1Br`, the cell number change is -20.2%. For the same compound, the AC50 under setting [1] is 0.116 µM [falling, full curve, poor fit]. The AC50 under setting [2] is 0.651 µM [falling, full curve]. As to `Cc1ccc(-c2nn(CCC(N)=O)c(=O)c3ccccc23)cc1`, the cell number change is -16.7%. Further, the AC50 under setting [2] is 29.1 µM [falling, single point].

On to `CCCc1nc2ccccc2c(=O)n1/N=C/c1ccc(O)c(O)c1`, for which the cell number change is -27.3%. The AC50 under setting [2] is 29.1 µM [falling, single point]. Consider `CCCSc1nc(SCC(=O)NCc2ccccc2)c2c3c(sc2n1)COC(C)(C)C3`, for which, under setting [2], the half-maximal activity concentration (AC50) was 0.731 µM [rising, single point]. For `O=S(=O)(c1ccc(Cl)cc1)N1CCN=C1SCc1ccc(Cl)c(Cl)c1`, the cell number change worked out at 8.2%. Besides, under setting [2], the AC50 is 16.4 µM [rising, partial curve]. With `Cc1ccc(Nc2nc(N)c3ccccc3n2)cc1C`, the cell number change was -2.11%. Also, under setting [2], the AC50 is 29.1 µM [falling, single point]. Regarding `CCn1c(=O)c(=O)[nH]c2cc(C(=O)NC(C)c3ccc(S(N)(=O)=O)cc3)ccc21` (stereo unspecified), under setting [2], the AC50 is 0.58 µM [rising, single point]. As to `O=C(NC1CC1)c1sc2cc(Cl)ccc2c1Cl`, the cell number change is -4.67%. Besides, the AC50 under setting [1] is 0.0116 µM [rising, full curve, poor fit]. For the compound `Cc1ccccc1OC(C)C(=O)Nc1ccc(S(=O)(=O)N2CCCC2)cc1` (stereo unspecified), the cell number change is -36.9%. Further, under setting [1], the half-maximal activity concentration (AC50) was 35.5 µM [falling, single point]. In addition, under setting [2], the half-maximal activity concentration (AC50) is 35.5 µM [falling, single point].

For the compound `CCCN(CC(=O)Nc1ccc(OC)c(OC)c1)CC(=O)Nc1ccc(F)c(F)c1F`, the cell number change came out at 39.9%. Also, the AC50 under setting [1] is 29.1 µM [rising, single point]. For `C=CC(=O)NC(C)(C)CCN1CCOCC1`, the cell number change is -46.5%. Also, the AC50 under setting [1] is 29.1 µM [falling, single point]. Also, the AC50 under setting [2] was 29.1 µM [falling, single point].

For the compound `COc1ccc(CN2CCN(CCc3ccccc3)C(CCO)C2)cc1Cn1cncn1` (stereo unspecified), the cell number change amounted to 18.9%. In addition, under setting [2], the AC50 is 0.291 µM [rising, full curve, poor fit].

Regarding `O=C(Nc1cccc2ccccc12)N1N=CCC1c1ccccc1` (stereo unspecified), the cell number change came out at 9.78%. Also, the AC50 under setting [2] was 29.1 µM [rising, single point]. For the compound `CCOC(=O)N/N=C/c1cc(C)n(-c2cccc3ccccc23)c1C`, the cell number change is -26.7%. For the same compound, under setting [1], the concentration at half-maximal activity (AC50) was 0.00461 µM [rising, full curve, poor fit]. For the compound `Cc1ccc(NC(=O)CC(=O)c2ccccc2)cc1C`, the cell number change is -3.17%. Further, the AC50 under setting [2] is 29.1 µM [rising, single point]. Consider `CCOC(=O)C1=C(COC(=O)COc2ccc(OCC)cc2)NC(=O)NC1C` (stereo unspecified), for which the AC50 under setting [2] is 5.17 µM [rising, single point].

For the compound `CCCN1CCC(NC(=O)Cc2ccccc2C)CC1`, the cell number change worked out at 6.08%. Besides, under setting [2], the AC50 is 6.51 µM [falling, single point].

Consider `COc1ccc(S(=O)(=O)N2CCOCC2)cc1NC(=O)CCOc1ccc(C(C)(C)C)cc1`, for which the cell number change is 8.43%. In the case of `COc1ccc(-c2cc(C(=O)NCCN3CCOCC3)c3ccccc3n2)c(OC)c1`, the AC50 under setting [1] was 0.58 µM [falling, partial curve]. On to `Cc1nn(Cc2cccc(C(N)=O)c2)c(C)c1Br`, for which the cell number change was determined as 25%. In addition, under setting [2], the AC50 was 0.461 µM [rising, full curve, poor fit]. With `CN(CC(=O)NCc1ccccc1F)S(=O)(=O)c1ccc(Cl)cc1`, the cell number change is 43.2%. The AC50 under setting [1] was 20.6 µM [rising, single point]. As to `O=C(NCc1ccc(Cl)cc1)C(=O)c1cn(CC(=O)N2CCOCC2)c2ccccc12`, the cell number change was -3.54%. In the case of `O=C(Cn1c(COc2ccccc2)nc2ccccc21)Nc1cc(Cl)cc(Cl)c1`, the cell number change is -15.5%. Besides, the AC50 under setting [2] is 14.6 µM [falling, partial curve, poor fit]. Turning to `C=CCn1c(SC(C)C(=O)NC2(C#N)CCCCC2)nnc1-c1ccc(OC)cc1` (stereo unspecified), under setting [2], the AC50 was 5.17 µM [falling, partial curve]. `CCCOc1cccc(C(=O)NC(=S)Nc2cccc(C(F)(F)F)c2)c1`: under setting [2], the AC50 was 6.51 µM [falling, single point]. `COc1cccc(NC(=O)c2ccc(-n3cnnn3)cc2)c1`: the cell number change amounted to 5.13%. Regarding `Cc1ccc(C)c(S(=O)(=O)Nc2ccc3oc(C)c(C(=O)O)c3c2)c1`, the cell number change stood at 15%. The AC50 under setting [2] was 4.61 µM [rising, partial curve].

As for `CC(O)CNc1ccc(-c2nn(C)c(=O)c3ccccc23)cc1[N+](=O)[O-]` (stereo unspecified), the cell number change was determined as 6.62%. Besides, the AC50 under setting [1] is 4.61 µM [falling, single point]. Regarding `COC(=O)c1ccc(OC(=O)c2cccnc2SC)cc1`, the cell number change was determined as 6.3%. For `Cc1cc(C)c(NC(=O)CNC(=O)c2cc(C3CC3)nn2-c2ccccc2)c(C)c1`, the cell number change was -5.35%. Besides, the AC50 under setting [2] was 6.51 µM [falling, single point]. On to `Cc1ccc(C(=O)N2CCN(c3ccc(NC(=O)Cc4ccccc4)cc3)CC2)cc1`, for which the cell number change came out at 50.1%. For the same compound, the AC50 under setting [1] was 29.1 µM [rising, single point]. Besides, the AC50 under setting [2] is 29.1 µM [rising, single point]. Consider `Cc1cc(C)nc(NC(=O)c2c(-c3ccccc3Cl)noc2C)c1`, for which the cell number change came out at 18.6%. Under setting [2], the half-maximal activity concentration (AC50) was 0.0731 µM [rising, full curve, poor fit]. With `COc1cc(/C=C/C(=O)OCC(=O)NC2CCS(=O)(=O)C2)ccc1O` (stereo unspecified), the cell number change was 3.81%. For the compound `Cc1ccccc1OC1CCN(C(=O)c2cc(COc3ccccc3)on2)CC1`, the cell number change was -25.5%. Also, the half-maximal activity concentration (AC50) under setting [2] is 29.1 µM [falling, single point]. Take `CCCCn1c(N)c(N(CC(C)C)C(=O)CSc2nnc(-c3ccc(Cl)cc3)o2)c(=O)[nH]c1=O`: the AC50 under setting [2] is 29.1 µM [rising, single point]. As to `O=C(Cn1c(O)c(/C=C2\C=Nc3ccccc32)sc1=O)N1CCOCC1`, the cell number change came to 17.2%. Also, the AC50 under setting [1] is 0.0731 µM [falling, full curve, poor fit]. Besides, under setting [2], the AC50 is 11.6 µM [rising, partial curve, poor fit]. As for `Cc1csc(SCC(=O)Nc2c(C)n(C)n(-c3ccccc3)c2=O)n1`, the cell number change stood at 4.88%. Besides, under setting [2], the AC50 was 9.2 µM [rising, partial curve, poor fit].

Consider `CN(CC(=O)Nc1ccc(F)cc1)C(=O)COC(=O)CSc1ccc(F)cc1`, for which the cell number change was -19%. Also, under setting [2], the concentration at half-maximal activity (AC50) was 2.31 µM [falling, full curve, poor fit].

`Cc1nn(-c2nnc(NC3CCCCC3)nn2)c(C)c1Br`: the cell number change is -74.7%. The AC50 under setting [1] is 16.4 µM [falling, partial curve]. Also, the AC50 under setting [2] is 18.4 µM [falling, partial curve]. `COc1ccc(CNS(=O)(=O)c2ccc3c(c2)N(C)CCO3)cc1`: under setting [2], the half-maximal activity concentration (AC50) is 4.11 µM [rising, single point]. As to `CS(=O)(=O)Nc1cccc(C2=NN(S(C)(=O)=O)C(c3ccc4c(c3)OCO4)C2)c1` (stereo unspecified), the cell number change amounted to 27%. For the same compound, the AC50 under setting [2] was 4.11 µM [rising, partial curve].

On to `COCCNc1nnc(SCC(=O)NC(=O)c2ccc(Cl)cc2)s1`, for which the AC50 under setting [2] was 0.58 µM [rising, full curve, poor fit]. Consider `COc1ccc(OC)c(NC(=O)c2sc3ncnc(N4CCN(c5ccccn5)CC4)c3c2C)c1`, for which the cell number change was -7.26%. On to `CCOC(=O)c1[nH]c(C)c(C(=O)NC(C)CC)c1C` (stereo unspecified), for which the cell number change amounted to 10.1%. In the case of `Cc1ccc(NC(=O)C(C)Sc2n[nH]c(CNc3ccccc3)n2)cc1` (stereo unspecified), the cell number change was found to be 11.8%. On to `Cc1cc(C)n2nc(CC(=O)NNC(=O)c3ccc(N(C)C)cc3)nc2n1`, for which the cell number change was determined as 9.73%. Moreover, the AC50 under setting [2] is 29.1 µM [falling, single point]. For `CCOC(=O)C1C(=O)NC(N2CCN(Cc3ccccc3)CC2)=NC1c1ccco1` (stereo unspecified), the AC50 under setting [1] was 2.59 µM [rising, partial curve, poor fit]. For `O=C(NCCC1=CCCCC1)c1cc(COc2ccc(F)cc2Cl)on1`, the cell number change is -7.08%. Moreover, the half-maximal activity concentration (AC50) under setting [1] was 6.51 µM [rising, single point]. Turning to `COc1cc(S(=O)(=O)Nc2ccccc2C)ccc1NC(=O)c1ccncc1`, the AC50 was 0.82 µM [rising, single point] under setting [1] and 4.61 µM [rising, single point] under setting [2].

With `O=C(Nc1ccc(F)cc1F)c1ccc2ncsc2c1`, the cell number change worked out at 36.6%. For the same compound, the half-maximal activity concentration (AC50) under setting [1] is 0.164 µM [rising, full curve, poor fit].

For the compound `Clc1ccccc1CSc1nnc([C@@H]2CCCN2)o1`, the cell number change was 26.2%. Moreover, under setting [2], the AC50 is 0.13 µM [rising, full curve, poor fit].
